Measured values reported in paper PMC12470860.
These are yes or no findings as the source states them, for the method shown. Binding seen in cells or lysates may run through a third protein. Some entries that bind do so weakly or less than the wild type.

Sequences of proteins named here, by UniProt entry; tags and fusion partners are left off. Residues count along the entry.
UniProt P10103: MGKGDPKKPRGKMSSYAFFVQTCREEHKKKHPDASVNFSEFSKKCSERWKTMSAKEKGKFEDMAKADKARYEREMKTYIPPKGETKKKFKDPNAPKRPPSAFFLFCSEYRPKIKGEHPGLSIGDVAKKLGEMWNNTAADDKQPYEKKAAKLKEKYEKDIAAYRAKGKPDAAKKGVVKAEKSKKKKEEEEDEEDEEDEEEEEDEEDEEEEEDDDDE
UniProt Q95LA9, residues 21-784: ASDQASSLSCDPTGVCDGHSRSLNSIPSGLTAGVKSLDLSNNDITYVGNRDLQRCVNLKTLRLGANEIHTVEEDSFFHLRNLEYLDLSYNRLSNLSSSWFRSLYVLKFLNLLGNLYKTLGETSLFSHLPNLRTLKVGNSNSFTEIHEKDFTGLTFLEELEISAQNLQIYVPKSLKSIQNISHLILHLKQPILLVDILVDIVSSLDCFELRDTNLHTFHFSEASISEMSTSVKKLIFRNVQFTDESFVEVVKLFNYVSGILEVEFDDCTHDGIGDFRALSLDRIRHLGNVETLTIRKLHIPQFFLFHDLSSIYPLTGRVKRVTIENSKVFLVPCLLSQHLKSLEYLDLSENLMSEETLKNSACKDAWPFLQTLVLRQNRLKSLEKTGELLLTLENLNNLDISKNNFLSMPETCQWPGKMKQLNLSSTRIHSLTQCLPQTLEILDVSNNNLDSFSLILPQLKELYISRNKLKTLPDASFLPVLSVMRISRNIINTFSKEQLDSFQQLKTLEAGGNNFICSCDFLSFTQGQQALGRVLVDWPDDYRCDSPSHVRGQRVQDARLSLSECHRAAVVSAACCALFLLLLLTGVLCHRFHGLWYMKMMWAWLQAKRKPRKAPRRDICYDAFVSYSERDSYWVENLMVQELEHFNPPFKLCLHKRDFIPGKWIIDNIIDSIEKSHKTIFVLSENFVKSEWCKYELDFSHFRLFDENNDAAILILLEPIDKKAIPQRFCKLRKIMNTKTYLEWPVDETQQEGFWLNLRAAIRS

Target: High-mobility group box 1 (UniProt P10103)
Experiment: co-IP; 8 μg HMGB1 monoclonal antibody with 1 mg pre-cleared BOGC lysate overnight at 4 °C, protein A/G agarose (Pierce Classic IP kit); blots for TLR2, TLR1, TLR6 and phospho-NF-κB p65; cells treated for 24 h with 0 or 5 μg/mL HMGB1, with or without 1.25, 2.5 or 5 μg/mL curcumin or siRNA-TLR2

## Toll-like receptor 2 (from UniProt Q95LA9 21-784)
  binding: binds

B1: TLR6 (receptor, UniProt Q704V6 24-793)
chain: TIIQFSDESEFVVDMSKTSLIHVPKDLPPKTKVLDLSQNNISELHLSDISFLSGLRVLRLSHNRIQGLDISIFKFNHDLEYLDLSHNQLQKISCHPITTTLKHLDLSFNDFDALPICKEFGNLTQLNFLGLSATKLQQLDLLPIAHLHLSCILLDLEDYMKENKKESLQILNTKKLHLVFHPNSFFSVQVDISANSLGCLQLTNIKLNDYNCQVLLKFLSGLTGGPTLLNFTLNHVETTWKCLVKVFQFLWPKPIEYLNIYNLTIVESIDEEVFTYYKTTLKALKIEHITNKVFIFSQTALYTVFSEMNILMLTISDTRFIHMLCPQEPSTFKFLNFTQNSFTDSVFQNCDTLARLETLILQKNELKDLFKTSLMTKDMLSLETLDVSWNSLEYDRSNGNCSWVGSIVVLNLSSNALTDSVFRCLPPRIKVLDLHNNRIRSIPKDVTGLETLQELNLASNSLAHLPGCGIFSSLSILIIEHNSISNPSADFFQSCQKIRSLKAGNNPFQCSCELRDFIQSVGQVSSDVVEGWPESYKCDYPESYKGTPLKDFQVSELSCNTALLIITIVVPGLVLAVAVTVLCIYLDLPWYLRMVCQWTQTRRRARNVPLEELQRTLQFHAFISYSEHDSAWVKNELIPNLEKEDIRICLHERNFVAGKSIVENIINCIEKSYKSIFVLSPNFVQSEWCHYELYFAHHNLFHEGSDNLILILLDPIPQYSIPSSYHKLRALMAQRTYLEWPKEKSKHGLFWANLRASINIKLMEKAAEIH
  binding: binds
